# Primary screen of a compound library

Protein sequences, listed by entry. Tags and fused reporters are not part of them.
UniProt P9WNZ1, whole entry: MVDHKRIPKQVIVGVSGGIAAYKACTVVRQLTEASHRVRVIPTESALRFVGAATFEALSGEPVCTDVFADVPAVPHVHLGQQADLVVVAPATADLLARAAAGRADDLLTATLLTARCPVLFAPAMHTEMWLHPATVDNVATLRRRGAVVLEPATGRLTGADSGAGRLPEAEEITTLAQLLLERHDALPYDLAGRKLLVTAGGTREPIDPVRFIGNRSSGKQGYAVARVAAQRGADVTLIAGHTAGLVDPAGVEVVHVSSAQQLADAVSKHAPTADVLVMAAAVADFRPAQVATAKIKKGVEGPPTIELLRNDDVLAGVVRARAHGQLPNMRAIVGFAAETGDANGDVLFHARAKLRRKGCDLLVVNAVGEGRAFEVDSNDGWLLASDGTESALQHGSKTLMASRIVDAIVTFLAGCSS
UniProt P9WFT3, whole entry: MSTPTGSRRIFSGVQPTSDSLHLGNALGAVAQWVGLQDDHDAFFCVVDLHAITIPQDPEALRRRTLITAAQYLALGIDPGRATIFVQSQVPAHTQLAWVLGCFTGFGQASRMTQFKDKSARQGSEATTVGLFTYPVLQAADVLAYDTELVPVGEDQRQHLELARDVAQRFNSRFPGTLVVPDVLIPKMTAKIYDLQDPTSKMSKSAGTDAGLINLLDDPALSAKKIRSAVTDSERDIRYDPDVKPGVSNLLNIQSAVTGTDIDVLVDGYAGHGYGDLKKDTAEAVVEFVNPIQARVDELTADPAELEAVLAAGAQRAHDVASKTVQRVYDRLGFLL
UniProt I6X8D2, whole entry: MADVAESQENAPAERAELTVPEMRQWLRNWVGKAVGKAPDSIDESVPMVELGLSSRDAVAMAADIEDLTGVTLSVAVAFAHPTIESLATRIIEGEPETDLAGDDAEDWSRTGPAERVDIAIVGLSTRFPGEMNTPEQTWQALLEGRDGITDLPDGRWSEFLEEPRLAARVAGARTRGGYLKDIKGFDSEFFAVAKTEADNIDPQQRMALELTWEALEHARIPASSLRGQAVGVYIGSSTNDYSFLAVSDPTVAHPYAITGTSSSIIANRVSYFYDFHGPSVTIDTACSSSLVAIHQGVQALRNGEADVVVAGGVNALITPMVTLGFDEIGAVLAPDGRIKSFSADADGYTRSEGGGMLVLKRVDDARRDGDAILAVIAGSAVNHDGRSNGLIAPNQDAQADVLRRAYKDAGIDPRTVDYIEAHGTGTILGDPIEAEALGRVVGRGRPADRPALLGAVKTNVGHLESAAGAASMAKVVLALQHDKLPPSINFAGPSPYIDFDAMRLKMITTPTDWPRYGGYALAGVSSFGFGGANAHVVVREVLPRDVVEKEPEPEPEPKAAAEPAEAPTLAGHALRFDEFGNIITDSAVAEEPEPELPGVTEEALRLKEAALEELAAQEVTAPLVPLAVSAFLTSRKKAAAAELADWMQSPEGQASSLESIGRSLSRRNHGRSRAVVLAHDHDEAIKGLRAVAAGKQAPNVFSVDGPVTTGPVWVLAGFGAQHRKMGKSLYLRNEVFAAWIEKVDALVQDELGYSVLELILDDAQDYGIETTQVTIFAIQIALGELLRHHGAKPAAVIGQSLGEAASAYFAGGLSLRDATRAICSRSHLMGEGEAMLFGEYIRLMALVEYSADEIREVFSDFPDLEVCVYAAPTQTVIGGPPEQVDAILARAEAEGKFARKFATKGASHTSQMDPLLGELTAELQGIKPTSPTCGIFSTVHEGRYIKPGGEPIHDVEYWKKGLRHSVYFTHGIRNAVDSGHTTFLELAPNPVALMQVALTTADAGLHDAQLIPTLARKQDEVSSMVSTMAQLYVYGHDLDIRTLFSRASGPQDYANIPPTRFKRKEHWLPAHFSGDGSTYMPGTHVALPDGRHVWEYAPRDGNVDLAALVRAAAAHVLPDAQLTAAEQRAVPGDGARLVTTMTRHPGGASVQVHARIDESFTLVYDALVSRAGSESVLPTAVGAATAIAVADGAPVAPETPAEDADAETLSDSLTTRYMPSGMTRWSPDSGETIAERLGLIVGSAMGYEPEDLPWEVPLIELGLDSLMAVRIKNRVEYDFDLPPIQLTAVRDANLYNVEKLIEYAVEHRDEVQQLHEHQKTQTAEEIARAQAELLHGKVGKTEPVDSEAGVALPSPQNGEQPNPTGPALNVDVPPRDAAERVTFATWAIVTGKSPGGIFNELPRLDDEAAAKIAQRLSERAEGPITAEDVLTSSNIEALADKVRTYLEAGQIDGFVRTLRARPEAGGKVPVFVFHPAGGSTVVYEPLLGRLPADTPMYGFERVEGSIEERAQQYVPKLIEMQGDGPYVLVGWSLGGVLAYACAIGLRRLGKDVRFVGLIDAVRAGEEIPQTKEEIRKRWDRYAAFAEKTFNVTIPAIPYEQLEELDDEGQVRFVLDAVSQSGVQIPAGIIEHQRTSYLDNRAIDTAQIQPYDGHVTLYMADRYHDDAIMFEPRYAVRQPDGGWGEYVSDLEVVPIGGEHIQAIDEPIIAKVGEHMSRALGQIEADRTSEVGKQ

A: 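Coenzyme A biosynthesis protein CoaBC, Mycobacterium tuberculosis (UniProt P9WNZ1). Enzyme assay of CoaBC with a phosphate dye (Biomol Green) read at 650 nm. Concentration: 30 µM. Direction is inferred from only a few compounds that gave an IC50; most scored high, so higher reads as stronger inhibition. Most strong results did not repeat in a second test. About 67,000 compounds were tested under these conditions; 0.06% (about 40) showed 50% or more at least once.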
B: 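Enzyme assay of tryptophanyl-tRNA synthetase; the read-out is not stated. Target: Tryptophan-tRNA ligase, Mycobacterium tuberculosis (UniProt P9WFT3). Tested at 10 µM. Direction is not recorded; retested compounds ran higher, which suggests that high means inhibition. About 65,000 compounds were tested under these conditions; 0.098% (about 64) showed 50% or more at least once.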
C: 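Polyketide synthase Pks13, Mycobacterium tuberculosis (UniProt I6X8D2). Enzyme assay of the thioesterase domain of polyketide synthase 13; the read-out is not stated. Tested at 30 µM. The record gives no direction; the compounds picked for IC50 retests had high values, so higher reads as stronger inhibition. Of about 67,000 compounds tested this way, about 300 (0.46%) reached 50% or more in at least one test.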

Results are given as percent effect. The controls that fix the scale are not given in the record; negative values are as filed. Compounds were drawn at random from those tested, without regard to their results. A dash means the value is not listed here; it may have been measured.

| structure | A | B | C |
|---|---|---|---|
| `COc1cc(C(C)=O)ccc1SCC(=O)Nc1ccccn1` | - | 11.97% | 20.06% |
| `COc1nn(C)cc1C(=O)NCC(OC)c1ccccc1C` (stereo unspecified) | -3.639% | 1.341% | -17.35% |
| `Cn1cc(N2CC3(CCN(Cc4ccoc4)CC3)OCC2=O)cn1` | 1.253% | 0.9682% | 6.466% |
| `CN(C)c1cc(CNCc2cccc3c2OCCO3)ccn1` | 4.536% | -6.556% | -16.44% |
| `CC(C)N(C)CC(=O)Nc1nccn1Cc1ccccc1Cl` | -20.39% | -6.274% | -24.42% |
| `CCN(CC)CCCC(C)NC(=O)c1ccccc1-n1cccn1` (stereo unspecified) | 2.475% | -4.633% | -5.977% |
| `CO[C@H]1CN(C(=O)c2ccc(-c3cc[nH]n3)cc2)CC[C@H]1N` | 4.716% | 1.286% | -31.51% |
| `CSC(C)C(=O)N1CCC(Oc2cc(C)ccc2F)(C(=O)O)CC1` (stereo unspecified) | 1.818% | -2.694% | 11.43% |
| `COCC1CN(Cc2ccc(OC)cc2)Cc2nn(C)cc21` (stereo unspecified) | 2.703% | 3.547% | -7.077% |
| `COc1ccccc1S(=O)(=O)Nc1ccc2c(C(=O)O)c[nH]c2c1` | -2.651% | 7.754% | -1.393% |
| `Cc1ccc(CN2CCC3(CCCN(C(=O)N(C)C)C3)C2)cc1` (stereo unspecified) | 2.083% | 4.302% | -17.39% |
| `CCN(C(=O)c1cccc2c1OCO2)c1ccc(Br)cn1` | 4.701% | -4.354% | -89.92% |
| `Cc1nc(-c2ccc(S(=O)(=O)N3CCC=C(F)C3)cc2)co1` | 1.733% | -2.835% | 16.03% |
| `CCn1ccnc1C1CCN(Cc2cccc(Cl)c2)CC1` | 11.59% | 4.371% | -1.076% |
| `COCCOc1ncccc1C(=O)N1CCCCC1c1nccs1` (stereo unspecified) | 4.307% | -6.215% | -13.06% |
| `CCN(C)c1ccc(C(=O)N(CCOC)Cc2ccccn2)cc1` | 4.911% | 5.329% | -7.374% |
| `O=C(CCN1CCCC1C1CCCCC1)N1CCc2sccc2C1` (stereo unspecified) | 4.626% | 3.052% | -11.32% |
| `Cc1cnn(C2CN(Cc3ccc4c(c3)OCCO4)C2)c1` | -7.589% | -3.552% | -27.32% |
| `CCc1nc(CN2CCN(C(=O)Cc3c(C)noc3C)CC2)cs1` | -1.295% | -0.07424% | -8.245% |
| `CN(C)C[C@@H]1CN(C2CCN(c3ccccc3Cl)CC2)C[C@@H]1CO` | -59.22% | -2.98% | -27.09% |
| `Cc1cccnc1NC(=O)C1CSc2ncc(C)c(=O)n2C1` (stereo unspecified) | 2.29% | 2.026% | -10.56% |
| `CC1CN(C(=O)CN(Cc2ccccc2Cl)C2CCCC2)CCO1` (stereo unspecified) | 3.655% | -11.54% | 6.411% |
| `CC1CCN(CCNC(=O)C2CCN(C(=O)C3CC3)CC2)CC1` | 0.641% | -2.205% | -22.25% |
| `O=C(Cn1ncc2c(c1=O)CCCCC2)Nc1cccc2[nH]ccc12` | 2.594% | 4.927% | -7.121% |
| `Cc1noc(CN2CCN(C(C)C(=O)NCc3cccs3)CC2)n1` (stereo unspecified) | -4.516% | 6.49% | 17.98% |
| `CC[C@@H]1N(CC2CC2)CCC[C@]12CCC(=O)N2` | - | -1.187% | 0.06111% |
| `CNC(=O)CN(C)C1CCN(c2ccc(Cl)cc2)CC1` | 2.228% | -1.314% | -19.61% |
| `CCS(=O)(=O)N1CC[C@H]2CO[C@H](CN(C)C)[C@H]2C1` | -0.2028% | -6.646% | -5.231% |
| `COCCN(C(=O)c1ccoc1C)c1ccc(C#N)cc1` | -1.276% | -3.981% | -29.55% |
| `CNc1ncc(CN(C)c2nccc(CCC(F)(F)F)n2)cn1` | - | -0.3096% | -32.44% |
| `CSc1ncc(C(=O)N2CCC(O)(CN3CCOCC3)C(C)(C)C2)cn1` (stereo unspecified) | -9.451% | -3.183% | -7.412% |
| `Cn1c(CN2CCOC[C@H]2c2nc(C(C)(C)C)co2)nc2ccccc21` | 6.09% | -2.517% | -27.82% |
| `COc1cccc2c1CCN(C(=O)NCc1nnc3ccccn13)C2` | 4.783% | -1.06% | -43.47% |
| `O=S(=O)(NCc1ccnc(-n2ccnc2)c1)c1cncc(Cl)c1` | 1.401% | -0.3068% | -21.74% |
| `CCCc1nnc2sc(C3CCN(CC)CC3)nn12` | 11.36% | -5.482% | -14.53% |
| `Cc1nn(CC(C)C)c(N(C)C)c1CNCc1ccc2c(c1)OCO2` | 3.781% | -5.127% | -26.88% |
| `O=C1CN(Cc2cc(O)c3cccc(F)c3n2)CCN1C1CCCC1` | 12.74% | 5.038% | -3.89% |
| `N#Cc1cc(S(N)(=O)=O)ccc1N1CCN(c2ccccc2)CC1` | -1.384% | -0.8163% | -16.63% |
| `COc1ccc(OCCCNC(=O)NCc2csc(C)n2)cc1` | 4.384% | -0.2916% | -5.747% |
| `CSCC(C)(O)CNC(=O)c1ccc(Br)cc1F` (stereo unspecified) | -3.524% | -1.844% | -18.5% |
| `N#CCCN(Cc1ccco1)C(=O)CN1CCCC1c1cccs1` (stereo unspecified) | 0.2484% | 2.642% | -29.26% |
| `COc1cccc(C(=O)NCc2ccccc2S(=O)(=O)N(C)C)c1` | 1.952% | -0.5623% | -114.1% |
| `CCc1noc(C(C)N2CCC(NS(=O)(=O)c3ccccc3)CC2)n1` (stereo unspecified) | -14.04% | -2.816% | -8.835% |
| `Cn1nc(C(=O)NC2(c3ccccc3)CCC2)ccc1=O` | -39.58% | -1.699% | -19.14% |
| `CN1CCC(NN2CCN(C)CC2)CC1` | -20.37% | -2.314% | -1.65% |
| `COc1ccc(-c2noc(CN3CCOCC3C)n2)cc1OC` (stereo unspecified) | 4.626% | -0.5477% | -0.7862% |
| `Cn1c(CN2CCCc3cc(F)cc(F)c32)cc(=O)n(C)c1=O` | 2.357% | -3.355% | -12.87% |
| `Cc1n[nH]c(CN2CCN(CC3CC3)[C@@H]3CS(=O)(=O)C[C@@H]32)n1` | 4.455% | -1.037% | 27.44% |
| `CCCn1c(C)c(CC(=O)NCC(C)O)c2c1CC(C)(C)CC2=O` (stereo unspecified) | 2.792% | 2.13% | -58.82% |
| `CC(C)(C)c1ccc(OCC(N)=O)c(CN2C[C@H]3C[C@H](O)C[C@H]3C2)c1` | -1.577% | -4.147% | 3.141% |
| `CC(C)Cc1nc(OCC(N)=O)c(C#N)c2c1CCC2` | -9.211% | -0.7519% | -8.986% |
| `COc1ccc(C(C)Nc2ncc(C(N)=O)cc2Cl)cc1F` (stereo unspecified) | 8.238% | -3.931% | -51.18% |
| `Cn1ncc2c1CCCN(C(=O)C1CCCC1)C2` | 4.205% | -0.5529% | 2.313% |
| `O=C(N[C@H]1CN(Cc2ccsc2)[C@@H]2CCCO[C@H]12)C1CC1` | -3.294% | -3.151% | -10.94% |
| `C=C(C)CN1CCC(n2cc(C3CCCC3)nn2)CC1` | 1.799% | -7.195% | -12.81% |
| `Cc1cc(CN2C[C@@H]3COC[C@]3(CNC(=O)c3ccco3)C2)no1` | 2.843% | -0.3791% | -1.191% |
| `CC(Cn1cc(Br)cn1)C(=O)Nc1ccc(C(N)=O)cc1` (stereo unspecified) | 0.5741% | 0.5735% | 14.78% |
| `O=C(NC1CC1)C1CCN(c2nc3nc[nH]c(=O)c3s2)CC1` | -0.6075% | -0.6431% | 0.7681% |
| `Cc1ccc(N2CCCC(NCc3cc(C)on3)C2)nn1` (stereo unspecified) | -13.94% | -4.145% | -10.59% |
| `CN(Cc1ccc(F)cc1)CC1(O)CCN(C(=O)c2ccncc2)C1` (stereo unspecified) | -1.937% | - | 2.285% |
| `Cn1ccnc1CN1CCCN(C(=O)c2ccc(O)nc2)CC1` | 5.236% | -5.356% | -9.168% |
| `CN(CCN1CCN(c2ccccc2)CC1)C(=O)Nc1ccncc1` | -7.051% | -3.439% | -3.188% |

The last 6 entries again:

structure,A,B,C
CC(Cn1cc(Br)cn1)C(=O)Nc1ccc(C(N)=O)cc1 (stereo unspecified),0.5741%,0.5735%,14.78%
O=C(NC1CC1)C1CCN(c2nc3nc[nH]c(=O)c3s2)CC1,-0.6075%,-0.6431%,0.7681%
Cc1ccc(N2CCCC(NCc3cc(C)on3)C2)nn1 (stereo unspecified),-13.94%,-4.145%,-10.59%
CN(Cc1ccc(F)cc1)CC1(O)CCN(C(=O)c2ccncc2)C1 (stereo unspecified),-1.937%,-,2.285%
Cn1ccnc1CN1CCCN(C(=O)c2ccc(O)nc2)CC1,5.236%,-5.356%,-9.168%
CN(CCN1CCN(c2ccccc2)CC1)C(=O)Nc1ccncc1,-7.051%,-3.439%,-3.188%

From ChEMBL document CHEMBL3988442, “University of Dundee, Small-Polar-MMV Screening Library” (2021).